{"source": "PubChem BioAssay AID1347076", "about": "(National Center for Advancing Translational Sciences (NCATS), 2019)", "note": "Where “and” joins values, the source holds several entries; their conditions need not be identical. Equal values may be shown once. Out of some 400,000 compounds screened, about 13,000 (3.2%) were called active. The inconclusive results got no clear call from the source; some entries with a clear call stand among them for comparison. The call rests on the fitted dose curve; in most records, active means well fitted cell-killing curve with a large enough effect; inconclusive means small, poorly fitted or top-dose-only effect, or effect the other way; inactive means flat fitted curve, though single readings scatter. Where the call is inconclusive, the potency comes from a doubtful curve fit. On the % scale 0 is the no-effect control and ±100 the full control effect; potency means the concentration at half of the fitted maximal effect.", "data": [{"test": "qHTS assay for MDR1-selective chemotherapeutics: Primary screen using the drug-selected MDR subline cells KB-V1; further: nearly all actives have a fitted effect of over 60% in size", "details": "KB-V1 MDR cells viability, CellTiter-Glo, 72 h; activity change, negative = cytotoxicity: at 46.1 µM (top of the series)", "summary_of_the_method": "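Cytotoxicity toward P-gp-expressing KB-V1 cells was determined as loss of CellTiter-Glo luminescence after 72 h at 37 degrees C. Compounds were tested in quantitative HTS format across a concentration range, with curves fitted to normalized data.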", "values": [{"smiles": "C=CCOC(=O)C1=C(C)NC(SC)=C(C#N)C1c1cccs1", "note": "(stereo not given)", "Potency": "active: 6.51 µM"}, {"smiles": "CCn1c(=O)cc(OCC(=O)N2CCN(c3cccc(C(F)(F)F)c3)CC2)c2ccccc21", "Potency": "inconclusive: 29.1 µM [cytotoxic, single point]"}, {"smiles": "CC1Oc2ccccc2N(CC(=O)N2CCc3ccccc32)C1=O", "note": "(stereo not given)", "Potency": "active: 14.6 µM"}, {"smiles": "Cc1cc(C)c(NC(=O)Cn2c(=O)n(CCCCC(=O)NCc3ccccc3Cl)c(=O)c3ccccc32)c(C)c1", "Potency": "inconclusive: 29.1 µM [rising, single point]"}, {"smiles": "Cc1ccccc1C1NC(c2ccccc2C)C(C)C(=O)C1C", "note": "(stereo not given)", "activity change, negative = cytotoxicity": "inactive: -10.7%"}, {"smiles": "Cc1ccc(-c2nc(C)c(C(=O)O)s2)cc1", "Potency": "inconclusive: 29.1 µM [rising, single point]"}, {"smiles": "CCOc1ncccc1C(=O)Nc1ccc(F)c(F)c1", "Potency": "inconclusive: 16.4 µM [cytotoxic, single point]"}, {"smiles": "O=C(CSc1ccc(-c2ccco2)nn1)Nc1cccc(F)c1", "Potency": "active: 10.3 µM"}, {"smiles": "CCC1Nc2ncnc(N3CCN(c4ccccc4)CC3)c2N(Cc2ccccc2)C1=O", "note": "(stereo not given)", "Potency": "inconclusive: 29.1 µM [cytotoxic, partial curve, poor fit] and inconclusive: 23.1 µM [cytotoxic, single point]"}, {"smiles": "COc1cccc(N2CCN(c3nc4ccc(C(=O)c5ccccc5)cc4n4c(C)nnc34)CC2)c1", "activity change, negative = cytotoxicity": "inactive: 19%"}, {"smiles": "NC(=O)c1nsc(C(=O)N(c2ccc(F)cc2)C(C(=O)NCC2CCCO2)c2c[nH]c3ccccc23)c1N", "note": "(stereo not given)", "activity change, negative = cytotoxicity": "inactive: -2.73%"}, {"smiles": "Cc1nc(NCc2ccco2)c2c(C)c(C)sc2n1", "Potency": "inconclusive: 14.6 µM [cytotoxic, partial curve]"}, {"smiles": "COc1cccc(/C=N/NC(=O)CC(C)O)c1OC/C=C/c1ccccc1", "note": "(stereo not given)", "Potency": "inconclusive: 18.4 µM [cytotoxic, single point]"}, {"smiles": "CC(C)NC(=O)N1CCN(c2ccncc2S(=O)(=O)N2CCCCC2)CC1", "Potency": "inconclusive: 6.51 µM [rising, partial curve]"}, {"smiles": "Cc1ccccc1NC(=O)c1nc(-c2ccncc2)no1", "activity change, negative = cytotoxicity": "inactive: 15.4%"}, {"smiles": "O=C(CSc1nnnn1C1CCCCC1)NNC(=O)c1ccco1", "Potency": "inconclusive: 6.51 µM [rising, full curve]"}, {"smiles": "COc1ccccc1CC(=O)Nc1cccc(S(=O)(=O)N2CCOCC2)c1", "Potency": "inconclusive: 29.1 µM [cytotoxic, partial curve, poor fit]"}, {"smiles": "O=C(NCCCn1ccnc1)C(=O)NCC1OCCN1S(=O)(=O)c1ccccc1", "note": "(stereo not given)", "Potency": "inconclusive: 29.1 µM [rising, single point]"}, {"smiles": "CC(Oc1ccc(Cl)cc1Cl)C(=O)NNC(=O)C(=O)N1CCCC1", "note": "(stereo not given)", "Potency": "inconclusive: 25.9 µM [cytotoxic, single point]"}, {"smiles": "COc1cc(NC(=O)c2c(OC)cccc2OC)ccc1NC(=O)c1cc2ccccc2o1", "Potency": "inconclusive: 4.11 µM [rising, full curve, poor fit]"}, {"smiles": "O=C(O)CCC(=O)N1N=C(c2ccccc2)CC1c1ccc(Br)cc1", "note": "(stereo not given)", "activity change, negative = cytotoxicity": "inactive: 20.1%"}, {"smiles": "Cc1ccc(NC(=O)NCc2cccn2Cc2ccccc2)cc1F", "Potency": "inconclusive: 1.84 µM [rising, partial curve, poor fit]"}, {"smiles": "CC(C)c1onc(C(=O)N(C)Cc2ccccc2)c1[N+](=O)[O-]", "activity change, negative = cytotoxicity": "inactive: 13.7%"}, {"smiles": "Cc1cc(C)c2c(=O)cc(C(=O)Nc3ccc(S(=O)(=O)Nc4nc(C)cc(C)n4)cc3)oc2c1", "activity change, negative = cytotoxicity": "inactive: -10.5%"}, {"smiles": "COc1cc(OC)cc(C(=O)N2CC(=O)Nc3ccccc32)c1", "Potency": "active: 2.31 µM"}, {"smiles": "COc1ccccc1Oc1coc2cc(OC(=O)N3CCOCC3)ccc2c1=O", "Potency": "active: 23.1 µM"}, {"smiles": "c1ccc(OCCNc2ccn3nc(-c4ccccc4)cc3n2)cc1", "activity change, negative = cytotoxicity": "inactive: 2.21%"}, {"smiles": "c1ccc(COC2COC3C(OCc4ccccc4)COC23)cc1", "note": "(stereo not given)", "activity change, negative = cytotoxicity": "inactive: 12%"}, {"smiles": "CC(C)c1ccc(NC(=O)C2CCCCN2S(=O)(=O)c2ccccc2)cc1", "note": "(stereo not given)", "Potency": "inconclusive: 20.6 µM [cytotoxic, single point]"}, {"smiles": "CCc1ccc(NC(=S)/N=C(\\N)Nc2nc(C)c3cc(CC)ccc3n2)cc1", "Potency": "inconclusive: 29.1 µM [cytotoxic, single point]"}, {"smiles": "Cc1cc2nc(CCN3CCOCC3)n(S(=O)(=O)c3ccc(C(C)(C)C)cc3)c2cc1C", "Potency": "inconclusive: 18.4 µM [cytotoxic, partial curve]"}, {"smiles": "O=C1C(Cl)=C(NCc2cccnc2)C(=O)c2ccccc21", "Potency": "inconclusive: 23.1 µM [cytotoxic, single point]"}, {"smiles": "CSc1ccc(/C=N/Nc2nc(C)cc(C)n2)cc1", "Potency": "inconclusive: 20.6 µM [cytotoxic, single point]"}, {"smiles": "S=C(Nc1ccc(Br)cc1Cl)N1CCC2(CC1)OCCO2", "Potency": "inconclusive: 16.4 µM [cytotoxic, single point]"}, {"smiles": "CN1CCN(C(=O)c2ccccc2NC(=O)c2sc3ccccc3c2Cl)CC1", "activity change, negative = cytotoxicity": "inactive: 7.69%"}, {"smiles": "Cc1cc(-c2ccccc2)nc(N/N=C/c2ccc([N+](=O)[O-])cc2)n1", "Potency": "active: 23.1 µM"}, {"smiles": "CCN(CC)S(=O)(=O)c1ccc(C(=O)Nc2nnc(C(C)C)s2)cc1", "Potency": "inconclusive: 16.4 µM [rising, single point]"}, {"smiles": "Cc1n[nH]c(=S)n1/N=C/c1ccc(OCc2ccc(Cl)cc2)cc1", "Potency": "inconclusive: 29.1 µM [cytotoxic, single point]"}, {"smiles": "Cc1c(OC(C)C(=O)NCc2ccncc2)ccc2c3c(c(=O)oc12)CCC3", "note": "(stereo not given)", "Potency": "inconclusive: 20.6 µM [cytotoxic, partial curve, poor fit]"}, {"smiles": "CCOC(=O)c1c(NC(=O)COC(=O)c2c(C)noc2C)sc2c1CCC2", "Potency": "inconclusive: 3.26 µM [cytotoxic, full curve]"}, {"smiles": "CN(C)c1ccc(-c2ccc3ccccc3n2)cc1", "activity change, negative = cytotoxicity": "inactive: 0%"}, {"smiles": "O=C(NCc1ccc2c(c1)OCO2)C1Cc2ccccc2CN1C(=O)c1ccco1", "note": "(stereo not given)", "Potency": "inconclusive: 29.1 µM [cytotoxic, single point]"}, {"smiles": "O=C(NC1=C(Nc2ccc(Cl)cc2)C(=O)c2ccccc2C1=O)c1ccccc1", "Potency": "active: 20.6 µM"}, {"smiles": "C[C@H]1CN([C@@H](C)CO)C(=O)c2cc(NC(=O)C3CCCCC3)ccc2O[C@H]1CN(C)C(=O)Nc1ccc2c(c1)OCO2", "activity change, negative = cytotoxicity": "inactive: 0.573%"}, {"smiles": "O=C(c1ccco1)N(Cc1ccc(Cl)cc1)Cc1ccco1", "Potency": "inconclusive: 29.1 µM [rising, single point]"}]}]}
